Results as given in publication doi:10.1101/2024.05.09.593434.
These are yes or no findings as the source states them, for the method shown. Some entries that bind do so weakly or less than the wild type.

By UniProt entry, the sequences of proteins in these tests, tags left out.
UniProt O64645: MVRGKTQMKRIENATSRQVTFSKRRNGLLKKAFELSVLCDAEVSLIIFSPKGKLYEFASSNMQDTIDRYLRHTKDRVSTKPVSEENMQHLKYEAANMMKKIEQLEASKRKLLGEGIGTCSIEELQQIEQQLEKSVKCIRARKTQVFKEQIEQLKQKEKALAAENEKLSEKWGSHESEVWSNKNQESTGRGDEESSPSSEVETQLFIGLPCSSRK
UniProt P29386: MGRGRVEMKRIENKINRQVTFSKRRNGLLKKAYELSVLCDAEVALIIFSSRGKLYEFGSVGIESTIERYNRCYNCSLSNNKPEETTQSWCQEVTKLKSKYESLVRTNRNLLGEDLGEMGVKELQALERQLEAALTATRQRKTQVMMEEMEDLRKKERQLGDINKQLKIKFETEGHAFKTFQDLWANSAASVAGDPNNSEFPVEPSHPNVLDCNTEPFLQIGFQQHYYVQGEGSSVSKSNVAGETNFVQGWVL

Assays:
[1] = molecular target: SUPPRESSOR OF OVEREXPRESSION OF CO 1 (SOC1), MADS-box transcription factor (A. thaliana) (UniProt O64645); experiment: two-hybrid
[2] = molecular target: AGL6, MADS-box transcription factor (A. thaliana) (UniProt P29386); experiment: two-hybrid

binding [1]: binds | binding [2]: binds
Substance: SHORT … PHASE (SVP), MADS-box transcription factor (from UniProt Q9FVC1 1-240)
